Measured values taken from article PMC9456370.
Results are given in words; binding and its absence hold for the method and conditions named. Binding seen in cells or lysates may run through a third protein. A yes stands for co-enrichment or nearness to the bait. Other partners may have been found. Where a sequence is shown, tags or fusion partners need not be part of it.

Sequences of proteins named here, by UniProt entry; tags and fusion partners are left off. Residues count along the entry.
UniProt P0AAI5: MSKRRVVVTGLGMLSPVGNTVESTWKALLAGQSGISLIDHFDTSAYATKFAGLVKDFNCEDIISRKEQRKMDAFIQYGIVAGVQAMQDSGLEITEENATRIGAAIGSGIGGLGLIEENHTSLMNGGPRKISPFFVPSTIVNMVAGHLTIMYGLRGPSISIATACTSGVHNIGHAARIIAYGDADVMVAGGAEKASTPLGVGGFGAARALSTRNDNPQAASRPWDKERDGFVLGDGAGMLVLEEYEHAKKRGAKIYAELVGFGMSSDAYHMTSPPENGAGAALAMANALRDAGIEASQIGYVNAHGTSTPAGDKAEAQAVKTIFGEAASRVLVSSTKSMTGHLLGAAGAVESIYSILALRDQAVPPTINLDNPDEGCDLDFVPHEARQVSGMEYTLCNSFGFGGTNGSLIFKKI
UniProt P31554, residues 25-784: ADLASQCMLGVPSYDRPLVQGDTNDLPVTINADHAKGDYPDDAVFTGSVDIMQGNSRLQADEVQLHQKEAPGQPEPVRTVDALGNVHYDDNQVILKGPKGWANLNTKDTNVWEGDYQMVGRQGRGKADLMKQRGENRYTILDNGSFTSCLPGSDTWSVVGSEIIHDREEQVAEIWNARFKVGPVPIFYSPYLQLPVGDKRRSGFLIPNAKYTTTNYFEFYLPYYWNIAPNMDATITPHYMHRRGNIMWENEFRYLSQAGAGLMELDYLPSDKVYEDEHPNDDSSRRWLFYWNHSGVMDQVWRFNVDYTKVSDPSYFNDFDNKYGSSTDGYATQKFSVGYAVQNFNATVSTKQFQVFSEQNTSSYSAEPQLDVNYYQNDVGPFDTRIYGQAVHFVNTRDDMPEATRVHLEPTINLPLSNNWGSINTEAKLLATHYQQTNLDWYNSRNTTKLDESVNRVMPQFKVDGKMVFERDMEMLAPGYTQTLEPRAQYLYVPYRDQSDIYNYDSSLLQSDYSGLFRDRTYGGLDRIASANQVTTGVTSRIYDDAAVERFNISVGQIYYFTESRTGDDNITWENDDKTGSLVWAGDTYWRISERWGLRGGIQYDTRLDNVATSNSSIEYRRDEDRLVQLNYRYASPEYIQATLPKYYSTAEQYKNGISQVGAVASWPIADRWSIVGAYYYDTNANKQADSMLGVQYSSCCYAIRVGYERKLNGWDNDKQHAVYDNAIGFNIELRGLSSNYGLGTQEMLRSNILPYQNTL
UniProt P63224: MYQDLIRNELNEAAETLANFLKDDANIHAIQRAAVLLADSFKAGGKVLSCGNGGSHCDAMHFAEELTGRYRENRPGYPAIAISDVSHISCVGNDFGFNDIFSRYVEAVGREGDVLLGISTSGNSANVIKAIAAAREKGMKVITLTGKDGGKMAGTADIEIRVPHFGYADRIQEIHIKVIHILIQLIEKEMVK
UniProt P24205: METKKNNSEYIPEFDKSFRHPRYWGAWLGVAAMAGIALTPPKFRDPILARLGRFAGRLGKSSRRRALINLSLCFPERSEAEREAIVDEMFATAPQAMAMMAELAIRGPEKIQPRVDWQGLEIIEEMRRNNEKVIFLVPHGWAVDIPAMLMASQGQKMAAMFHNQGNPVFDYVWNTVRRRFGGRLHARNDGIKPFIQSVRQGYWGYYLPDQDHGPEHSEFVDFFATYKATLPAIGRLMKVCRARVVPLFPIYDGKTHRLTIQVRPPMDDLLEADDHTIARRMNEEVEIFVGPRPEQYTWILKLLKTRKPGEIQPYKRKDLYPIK
UniProt P0AAI3: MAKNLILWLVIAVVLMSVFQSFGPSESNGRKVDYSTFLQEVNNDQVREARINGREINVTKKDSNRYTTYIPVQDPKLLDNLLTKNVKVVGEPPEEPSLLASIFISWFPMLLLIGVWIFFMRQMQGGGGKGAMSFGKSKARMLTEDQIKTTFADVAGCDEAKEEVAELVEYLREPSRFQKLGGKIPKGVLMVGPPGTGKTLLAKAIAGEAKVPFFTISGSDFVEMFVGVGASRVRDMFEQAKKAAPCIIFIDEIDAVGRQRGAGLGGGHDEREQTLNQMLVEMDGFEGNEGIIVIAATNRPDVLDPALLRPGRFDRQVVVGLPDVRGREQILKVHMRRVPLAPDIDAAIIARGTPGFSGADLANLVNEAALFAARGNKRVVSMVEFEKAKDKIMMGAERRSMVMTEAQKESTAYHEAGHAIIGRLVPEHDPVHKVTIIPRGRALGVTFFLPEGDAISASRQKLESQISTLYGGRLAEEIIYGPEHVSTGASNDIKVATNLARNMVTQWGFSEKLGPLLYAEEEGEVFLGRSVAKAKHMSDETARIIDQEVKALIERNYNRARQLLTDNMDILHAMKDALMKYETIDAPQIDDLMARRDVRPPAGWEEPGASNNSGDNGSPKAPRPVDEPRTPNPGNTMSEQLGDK

The substances below were run against T1, His6-tagged LapD protein (E. coli K-12) (UniProt P0ADW3) (assay: affinity purification with mass spectrometry; His6-LapD (pCA24N JW5539 in BW25113) from IM fraction solubilized with 2% octyl-β-D-glucoside, on nickel-nitrilotriacetic acid beads, eluted with 250 mM and 100 mM imidazole; co-eluting proteins resolved on 12% SDS-PAGE (Coomassie) and identified by MALDI-TOF).
T1 sequence: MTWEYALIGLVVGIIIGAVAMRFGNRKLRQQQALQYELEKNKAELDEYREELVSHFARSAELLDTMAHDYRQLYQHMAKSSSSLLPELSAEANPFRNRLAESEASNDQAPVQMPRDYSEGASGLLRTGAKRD

binding	Substance
binds	FabF (from UniProt P0AAI5 1-413) (enzyme)
binds	LptD (from UniProt P31554 25-784)
binds	GmhA (from UniProt P63224 1-192) (enzyme)
binds	LpxM (from UniProt P24205 1-323) (enzyme)
binds	FtsH (from UniProt P0AAI3 1-644) (enzyme)
